From publication doi:10.1101/2022.11.01.514535
No constants are given. Whether binding was seen depends on the method and setting. In cells and extracts the contact can be indirect. These calls come from enrichment with a bait or labelling near it, and not all partners need be listed. Where a sequence is shown, tags or fusion partners need not be part of it.

The chains behind the UniProt entries cited, without tags or fusion partners. Where a name states a change or a piece, a line headed by the entry shows the natural chain unless it says otherwise.
UniProt O95816: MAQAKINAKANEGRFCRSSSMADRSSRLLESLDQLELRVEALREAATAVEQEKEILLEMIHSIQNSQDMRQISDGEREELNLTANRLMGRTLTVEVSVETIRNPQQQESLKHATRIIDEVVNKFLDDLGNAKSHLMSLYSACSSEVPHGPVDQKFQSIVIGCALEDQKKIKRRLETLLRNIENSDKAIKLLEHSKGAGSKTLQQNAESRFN
UniProt P08238: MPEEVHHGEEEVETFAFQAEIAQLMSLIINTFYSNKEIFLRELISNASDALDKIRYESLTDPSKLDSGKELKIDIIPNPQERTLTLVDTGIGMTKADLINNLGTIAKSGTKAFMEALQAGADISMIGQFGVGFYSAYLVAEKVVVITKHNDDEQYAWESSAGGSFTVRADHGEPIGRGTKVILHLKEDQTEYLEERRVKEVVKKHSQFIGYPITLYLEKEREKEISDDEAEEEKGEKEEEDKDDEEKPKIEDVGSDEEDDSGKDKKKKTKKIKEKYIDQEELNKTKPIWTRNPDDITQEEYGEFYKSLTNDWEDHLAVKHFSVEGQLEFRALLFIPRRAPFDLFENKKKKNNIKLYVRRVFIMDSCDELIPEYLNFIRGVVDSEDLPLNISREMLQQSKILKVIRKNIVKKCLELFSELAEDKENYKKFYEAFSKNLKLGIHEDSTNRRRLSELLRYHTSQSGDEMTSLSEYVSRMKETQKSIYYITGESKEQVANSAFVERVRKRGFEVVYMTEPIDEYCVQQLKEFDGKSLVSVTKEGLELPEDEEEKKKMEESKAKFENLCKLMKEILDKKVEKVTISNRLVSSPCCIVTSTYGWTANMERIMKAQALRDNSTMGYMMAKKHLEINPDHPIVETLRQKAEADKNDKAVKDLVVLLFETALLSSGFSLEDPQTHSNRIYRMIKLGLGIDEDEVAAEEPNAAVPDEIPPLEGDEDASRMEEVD
UniProt P0DMV8: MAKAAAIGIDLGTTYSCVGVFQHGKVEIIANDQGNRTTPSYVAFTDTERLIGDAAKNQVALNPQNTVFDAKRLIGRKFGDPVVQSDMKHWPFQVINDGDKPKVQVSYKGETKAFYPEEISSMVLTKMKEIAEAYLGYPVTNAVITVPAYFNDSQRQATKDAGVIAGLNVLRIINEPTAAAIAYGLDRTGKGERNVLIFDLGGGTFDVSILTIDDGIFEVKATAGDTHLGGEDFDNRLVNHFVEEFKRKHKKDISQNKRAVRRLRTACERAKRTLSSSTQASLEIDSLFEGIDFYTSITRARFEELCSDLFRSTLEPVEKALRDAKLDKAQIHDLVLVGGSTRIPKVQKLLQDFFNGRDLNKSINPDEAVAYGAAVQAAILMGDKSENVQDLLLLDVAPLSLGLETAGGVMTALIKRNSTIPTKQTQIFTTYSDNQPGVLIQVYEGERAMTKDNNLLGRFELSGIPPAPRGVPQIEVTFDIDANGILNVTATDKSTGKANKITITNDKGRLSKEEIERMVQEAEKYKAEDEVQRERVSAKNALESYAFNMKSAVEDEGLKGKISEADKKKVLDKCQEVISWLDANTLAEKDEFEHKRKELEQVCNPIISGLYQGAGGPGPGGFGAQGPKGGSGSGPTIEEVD
UniProt P34932: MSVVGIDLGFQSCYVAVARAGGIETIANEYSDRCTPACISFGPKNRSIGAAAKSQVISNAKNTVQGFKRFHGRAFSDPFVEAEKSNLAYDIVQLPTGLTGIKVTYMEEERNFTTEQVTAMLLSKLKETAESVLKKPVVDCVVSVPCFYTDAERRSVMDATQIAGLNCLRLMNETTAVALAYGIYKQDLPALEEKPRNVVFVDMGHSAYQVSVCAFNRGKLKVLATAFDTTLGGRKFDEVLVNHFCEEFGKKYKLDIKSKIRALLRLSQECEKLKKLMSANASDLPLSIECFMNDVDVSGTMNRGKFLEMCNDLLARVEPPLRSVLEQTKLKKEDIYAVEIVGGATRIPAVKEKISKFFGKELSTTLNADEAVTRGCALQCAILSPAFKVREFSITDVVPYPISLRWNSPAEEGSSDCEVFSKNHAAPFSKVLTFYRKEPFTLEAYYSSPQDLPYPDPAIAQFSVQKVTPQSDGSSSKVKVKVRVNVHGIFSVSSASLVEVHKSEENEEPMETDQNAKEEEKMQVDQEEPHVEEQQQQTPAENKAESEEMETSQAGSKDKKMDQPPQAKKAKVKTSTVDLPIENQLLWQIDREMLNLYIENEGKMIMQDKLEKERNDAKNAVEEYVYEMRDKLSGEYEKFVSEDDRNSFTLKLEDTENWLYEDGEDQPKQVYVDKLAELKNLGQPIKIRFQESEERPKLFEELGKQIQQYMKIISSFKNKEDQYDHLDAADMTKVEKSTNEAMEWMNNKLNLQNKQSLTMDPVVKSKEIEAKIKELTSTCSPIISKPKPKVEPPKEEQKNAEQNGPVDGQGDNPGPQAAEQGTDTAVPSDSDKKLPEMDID
UniProt P11142: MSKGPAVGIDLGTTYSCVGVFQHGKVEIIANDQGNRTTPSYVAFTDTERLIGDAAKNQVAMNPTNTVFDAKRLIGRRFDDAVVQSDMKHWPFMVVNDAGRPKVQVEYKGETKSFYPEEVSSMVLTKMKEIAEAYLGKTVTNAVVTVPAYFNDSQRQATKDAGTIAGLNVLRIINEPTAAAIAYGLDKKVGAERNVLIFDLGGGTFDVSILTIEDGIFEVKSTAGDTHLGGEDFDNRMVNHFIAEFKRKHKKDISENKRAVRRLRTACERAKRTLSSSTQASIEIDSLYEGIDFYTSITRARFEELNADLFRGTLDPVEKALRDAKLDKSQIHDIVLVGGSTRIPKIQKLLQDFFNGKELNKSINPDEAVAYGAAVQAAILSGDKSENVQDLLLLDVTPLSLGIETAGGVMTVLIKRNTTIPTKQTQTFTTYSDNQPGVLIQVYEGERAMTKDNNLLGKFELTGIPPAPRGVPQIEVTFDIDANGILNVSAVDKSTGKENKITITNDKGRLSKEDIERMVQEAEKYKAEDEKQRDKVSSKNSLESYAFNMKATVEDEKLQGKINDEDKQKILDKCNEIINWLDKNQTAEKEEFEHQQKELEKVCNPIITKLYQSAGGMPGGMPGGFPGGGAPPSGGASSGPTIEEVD
UniProt P63208: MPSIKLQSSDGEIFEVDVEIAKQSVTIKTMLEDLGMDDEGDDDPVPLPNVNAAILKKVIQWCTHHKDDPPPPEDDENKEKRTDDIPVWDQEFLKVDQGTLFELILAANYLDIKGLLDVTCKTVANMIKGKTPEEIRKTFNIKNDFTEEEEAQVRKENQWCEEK

T1: FBXL6-Flag (F-box/LRR-repeat protein 6, wild type) (human) (UniProt Q8N531)
T1 sequence: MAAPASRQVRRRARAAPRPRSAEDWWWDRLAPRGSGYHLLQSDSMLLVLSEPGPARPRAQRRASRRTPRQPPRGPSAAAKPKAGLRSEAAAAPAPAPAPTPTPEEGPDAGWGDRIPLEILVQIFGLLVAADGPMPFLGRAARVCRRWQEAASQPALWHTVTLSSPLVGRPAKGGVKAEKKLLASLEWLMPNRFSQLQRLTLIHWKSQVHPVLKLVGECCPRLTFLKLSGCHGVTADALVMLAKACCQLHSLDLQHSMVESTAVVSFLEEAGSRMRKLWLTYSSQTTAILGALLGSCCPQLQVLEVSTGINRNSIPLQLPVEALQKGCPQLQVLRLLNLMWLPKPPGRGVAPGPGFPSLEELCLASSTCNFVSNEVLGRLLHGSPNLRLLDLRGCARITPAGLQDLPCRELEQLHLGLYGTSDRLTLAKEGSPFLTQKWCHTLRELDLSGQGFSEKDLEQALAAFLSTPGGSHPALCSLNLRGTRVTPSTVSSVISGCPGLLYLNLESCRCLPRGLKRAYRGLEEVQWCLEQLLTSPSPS

B1: NEMF (protein, UniProt O60524 1-1076)
chain: MKSRFSTIDLRAVLAELNASLLGMRVNNVYDVDNKTYLIRLQKPDFKATLLLESGIRIHTTEFEWPKNMMPSSFAMKCRKHLKSRRLVSAKQLGVDRIVDFQFGSDEAAYHLIIELYDRGNIVLTDYEYVILNILRFRTDEADDVKFAVRERYPLDHARAAEPLLTLERLTEIVASAPKGELLKRVLNPLLPYGPALIEHCLLENGFSGNVKVDEKLETKDIEKVLVSLQKAEDYMKTTSNFSGKGYIIQKREIKPSLEADKPVEDILTYEEFHPFLFSQHSQCPYIEFESFDKAVDEFYSKIEGQKIDLKALQQEKQALKKLDNVRKDHENRLEALQQAQEIDKLKGELIEMNLQIVDRAIQVVRSALANQIDWTEIGLIVKEAQAQGDPVASAIKELKLQTNHVTMLLRNPYLLSEEEDDDVDGDVNVEKNETEPPKGKKKKQKNKQLQKPQKNKPLLVDVDLSLSAYANAKKYYDHKRYAAKKTQKTVEAAEKAFKSAEKKTKQTLKEVQTVTSIQKARKVYWFEKFLWFISSENYLIIGGRDQQQNEIIVKRYLTPGDIYVHADLHGATSCVIKNPTGEPIPPRTLTEAGTMALCYSAAWDARVITSAWWVYHHQVSKTAPTGEYLTTGSFMIRGKKNFLPPSYLMMGFSFLFKVDESCVWRHQGERKVRVQDEDMETLASCTSELISEEMEQLDGGDTSSDEDKEEHETPVEVELMTQVDQEDITLQSGRDELNEELIQEESSEDEGEYEEVRKDQDSVGEMKDEGEETLNYPDTTIDLSHLQPQRSIQKLASKEESSNSSDSKSQSRRHLSAKERREMKKKKLPSDSGDLEALEGKDKEKESTVHIETHQNTSKNVAAVQPMKRGQKSKMKKMKEKYKDQDEEDRELIMKLLGSAGSNKEEKGKKGKKGKTKDEPVKKQPQKPRGGQRVSDNIKKETPFLEVITHELQDFAVDDPHDDKEEQDLDQQGNEENLFDSLTGQPHPEDVLLFAIPICAPYTTMTNYKYKVKLTPGVQKKGKAAKTALNSFMHSKEATAREKDLFRSVKDTDLSRNIPGKVKVSAPNLLNVKRK

The molecules below were run against T1, FBXL6-Flag (F-box/LRR-repeat protein 6, wild type) (human) (assay: affinity purification with mass spectrometry).

binding, binds:
BAG2 (from UniProt O95816 1-211)
HSP90AB1 (from UniProt P08238 1-724)
HSPA1A (heat shock protein A1A) (from UniProt P0DMV8 1-641)
HSPA4 (from UniProt P34932 1-840)
HSPA8 (from UniProt P11142 1-646)
SKP1 (from UniProt P63208 1-163)
B1
